Our source for the MTD and T1/2 values is US9855341B2, “Formulations and carrier systems including farnesylthiosalycylic moities” (University of Pittsburgh—Of the Commonwealth System of …, priority 2014, dated 2018).

The conditions of series [1]: single i.v. dose, female CD-1 mice, two weeks. From the text:
Changes in body weight and mouse survival were monitored daily for two weeks. The MTD was defined as the maximal dose that causes neither greater than 15% of body weight loss nor mouse mortality within two weeks after administration. See Lu, J.; Huang, Y.; Zhao, W.; Marquez, R. T.; Meng, X.; Li, J.; Gao, X.; Venkataramanan, R.; Wang, Z.; Li, S., PEG-derivatized embelin as a nanomicellar carrier for delivery of paclitaxel to breast and prostate cancers. Biomaterials, 34, 1591-600 (2013).

Series [2] is described as follows: Plasma pharmacokinetics. The following applies: DOX in plasma, i.v. 5 mg DOX/kg, non-compartment model. As for the experimental part:
The blood samples were collected in heparinized tubes at different time points (3 min, 8 min, 15 min, 30 min, 1 h, 2 h, 4 h, 8 h, and 12 h) post-injection. The blood was centrifuged (2,500 rpm, 10 min) and plasma was collected for the analysis. […] Non-compartmental pharmacokinetic analysis was done by WinNonlin. […] At day 1 post-injection, tumor tissues and major organs were collected from the mice. The tissues were weighed and homogenized using Homogenizer PowerGen 500 (Fisher Scientific). […] The solutions were centrifuged (2,500 rpm, 10 min) and the supernatant was used for HPLC measurement.

Structures are written as SMILES.

For `COc1cccc2c1C(=O)c1c(O)c3c(c(O)c1C2=O)C[C@@](O)(C(=O)CO)C[C@@H]3O[C@H]1C[C@H](N)[C@H](O)[C@H](C)O1` [DOX, doxorubicin], the MTD in series [1] amounted to 10 mg/kg. Further, in series [2], the T1/2 was found to be 1.74 h.
